Article PMC6826936
No constants are given. Whether binding was seen depends on the method and setting. In cells and extracts the contact can be indirect. Some entries that bind do so weakly or less than the wild type.

Biological target: SETDB1, endogenous in mouse ESCs (mouse (endogenous in HM1 mESCs)) (UniProt O88974)
Assay: co-IP; 500 ug nuclear extract of HM1 mESCs (micrococcal nuclease, sonication), 5 ug antibody to SETDB1 or MPP8, overnight 4 C, protein A/G beads, washes with 150 mM NaCl, 0.5% Triton X-100; Western blot; IgG as negative control

binding: binds
B1: MPP8 (M-Phase Phosphoprotein 8), endogenous in mouse ESCs (protein, UniProt Q3TYA6 1-858)
chain: MAAAAEEGMSAAALVMSVPDSIGRSPESEGVGAGDEEKDAATKGTVAVGDSEEDGEDVFEVERILDMKCEGGKNLYKVRWKGYTSEDDTWEPEVHLEDCKEVLLEFRKKLAENKAKAVRKDIQRLSLNNDIFEADSDSDQQSDTKEDISPRKKKKKIKCKEETSPEDLRKKRTKMGKLKDKFKTELESTSEIIGFDVKTKKRIWEVKEELKDSKKPKKDEIKETKELKKANKRAEVRDLKIKIREDVKENRKTKKERYIESPLESESPNDSLILEDDSEDFISDNREENQNVRSVRDKTAQETVQEGIFEKHLDDLISIEEDAGTRVRRKKTKPRKFEEPKEIKKLESTNAFLERRAIPKKQRNQDKGISNLELNKLPSPVFAQTLKSSRLSGEEKSLKSPDLAEEEKEKKNEPKGKYQKRYDLDKEEKARKEPKVLKSFKEIRNAFDLFKKTTEEKNDVLENNSKREEISLDSKIMNDNKTKDKCSLKEKRNTRDETDTWAYIAAEGDQEVSDSVCQTDETSDGRQPVLSLGMDLQLEWMKLEDFQKHLDGEDEPFITTNRIPNNLLRDAVKNGDYIAVKVALNSNEEYNLDQEDSTGMTLVMLAAAGGQDDLLRLLITKGAKVNGRQKNGTTALIHAAEKNFLTTVAILLEAGAFVNVQQSNGETALMKACKRGNSDIVRLVIECGADCNILSKHQNSALYFAKQCNNVLVYELLKSHLETLSRVAEETIRDYFESRLALLEPVFPIACHRLCEGPDFSTDFNYMPPQNMPEGSGVLLFIFHANFLGKDVIARLCGPCSVQAVVLNDKFQLPVFLDSHFVYSFSPVAGPNKLFIRLTEAPFAKVKLLIGAYRVQLQ
